Measured values from PMC3134442.
Results are given in words; binding and its absence hold for the method and conditions named. Binding seen in cells or lysates may run through a third protein. Some entries that bind do so weakly or less than the wild type.

By UniProt entry, the sequences of proteins in these tests, tags left out.
UniProt P14126: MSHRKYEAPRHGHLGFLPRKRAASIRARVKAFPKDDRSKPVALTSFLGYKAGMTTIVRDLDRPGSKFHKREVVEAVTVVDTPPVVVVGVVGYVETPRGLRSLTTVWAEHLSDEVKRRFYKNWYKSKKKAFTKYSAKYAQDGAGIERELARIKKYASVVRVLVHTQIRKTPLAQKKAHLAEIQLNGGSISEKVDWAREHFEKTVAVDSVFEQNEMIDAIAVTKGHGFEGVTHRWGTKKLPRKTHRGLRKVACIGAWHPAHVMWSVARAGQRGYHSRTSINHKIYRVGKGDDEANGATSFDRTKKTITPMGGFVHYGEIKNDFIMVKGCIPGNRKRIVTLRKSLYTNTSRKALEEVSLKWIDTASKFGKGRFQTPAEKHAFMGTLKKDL

How the values were obtained:
Assay in all cases: co-IP; TAP-tagged bait from cycloheximide-treated yeast lysate captured on IgG-coupled magnetic beads, 4°C, 2 h, 50 mM Hepes-KOH pH 7.5, 140 mM KCl, 10 mM MgCl2, NP-40; eluted with TEV protease; eluate immunoblotted (anti-Rpl3, anti-Egd2, anti-TAP)
Btt1-TAP (S. cerevisiae) = target: T1, Btt1-TAP (S. cerevisiae) (UniProt P40314)
T1 sequence: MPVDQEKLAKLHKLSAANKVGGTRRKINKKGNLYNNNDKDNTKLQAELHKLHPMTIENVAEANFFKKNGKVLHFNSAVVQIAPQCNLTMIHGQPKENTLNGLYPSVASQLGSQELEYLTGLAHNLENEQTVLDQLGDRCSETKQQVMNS

Egd1-TAP (S. cerevisiae) = target: T2, Egd1-TAP (S. cerevisiae) (UniProt Q02642)
T2 sequence: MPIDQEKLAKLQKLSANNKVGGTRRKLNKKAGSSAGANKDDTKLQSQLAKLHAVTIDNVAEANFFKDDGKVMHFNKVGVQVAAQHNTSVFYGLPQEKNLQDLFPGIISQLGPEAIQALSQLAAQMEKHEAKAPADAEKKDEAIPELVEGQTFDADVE

Egd2-TAP (S. cerevisiae) = target: T3, Egd2-TAP (S. cerevisiae) (UniProt P38879)
T3 sequence: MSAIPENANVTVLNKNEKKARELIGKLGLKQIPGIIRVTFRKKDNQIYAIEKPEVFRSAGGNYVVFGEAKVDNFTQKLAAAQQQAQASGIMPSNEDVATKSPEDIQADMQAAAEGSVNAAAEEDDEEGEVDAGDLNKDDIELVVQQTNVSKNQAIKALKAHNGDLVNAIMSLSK

[1] = target: T4, Srp54-TAP (S. cerevisiae) (UniProt P20424)
T4 sequence: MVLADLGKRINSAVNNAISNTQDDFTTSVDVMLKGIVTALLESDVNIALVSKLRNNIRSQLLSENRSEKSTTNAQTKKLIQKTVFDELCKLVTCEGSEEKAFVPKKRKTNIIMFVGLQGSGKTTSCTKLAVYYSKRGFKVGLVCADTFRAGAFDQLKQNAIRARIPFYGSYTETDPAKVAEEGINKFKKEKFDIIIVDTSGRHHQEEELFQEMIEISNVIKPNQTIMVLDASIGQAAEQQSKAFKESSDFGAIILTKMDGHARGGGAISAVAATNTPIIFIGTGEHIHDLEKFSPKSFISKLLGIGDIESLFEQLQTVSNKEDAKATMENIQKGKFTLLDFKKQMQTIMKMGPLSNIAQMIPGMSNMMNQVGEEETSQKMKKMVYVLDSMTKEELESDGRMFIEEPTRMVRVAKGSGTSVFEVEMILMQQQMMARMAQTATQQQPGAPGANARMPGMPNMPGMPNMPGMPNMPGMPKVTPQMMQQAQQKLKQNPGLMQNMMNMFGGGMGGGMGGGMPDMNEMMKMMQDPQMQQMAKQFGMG

[2] = target: T5, Srp68-TAP (S. cerevisiae) (UniProt P38687)
T5 sequence: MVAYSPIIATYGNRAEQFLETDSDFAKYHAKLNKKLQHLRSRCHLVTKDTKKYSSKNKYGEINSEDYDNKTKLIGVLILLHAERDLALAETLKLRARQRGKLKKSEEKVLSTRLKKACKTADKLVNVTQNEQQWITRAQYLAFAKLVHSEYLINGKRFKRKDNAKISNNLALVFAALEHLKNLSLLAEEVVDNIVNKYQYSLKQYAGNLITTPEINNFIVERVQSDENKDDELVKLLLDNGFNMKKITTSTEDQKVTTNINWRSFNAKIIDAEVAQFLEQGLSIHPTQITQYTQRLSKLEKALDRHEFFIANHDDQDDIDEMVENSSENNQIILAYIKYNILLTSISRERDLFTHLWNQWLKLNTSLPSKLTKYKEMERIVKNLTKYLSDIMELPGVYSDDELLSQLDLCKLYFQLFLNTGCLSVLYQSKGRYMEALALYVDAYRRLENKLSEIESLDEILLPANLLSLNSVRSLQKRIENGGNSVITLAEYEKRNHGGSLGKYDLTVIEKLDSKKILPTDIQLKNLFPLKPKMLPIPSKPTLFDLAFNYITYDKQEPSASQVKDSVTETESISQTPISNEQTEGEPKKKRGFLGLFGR

[3] = target: T6, Srp72-TAP (S. cerevisiae) (UniProt P38688)
T6 sequence: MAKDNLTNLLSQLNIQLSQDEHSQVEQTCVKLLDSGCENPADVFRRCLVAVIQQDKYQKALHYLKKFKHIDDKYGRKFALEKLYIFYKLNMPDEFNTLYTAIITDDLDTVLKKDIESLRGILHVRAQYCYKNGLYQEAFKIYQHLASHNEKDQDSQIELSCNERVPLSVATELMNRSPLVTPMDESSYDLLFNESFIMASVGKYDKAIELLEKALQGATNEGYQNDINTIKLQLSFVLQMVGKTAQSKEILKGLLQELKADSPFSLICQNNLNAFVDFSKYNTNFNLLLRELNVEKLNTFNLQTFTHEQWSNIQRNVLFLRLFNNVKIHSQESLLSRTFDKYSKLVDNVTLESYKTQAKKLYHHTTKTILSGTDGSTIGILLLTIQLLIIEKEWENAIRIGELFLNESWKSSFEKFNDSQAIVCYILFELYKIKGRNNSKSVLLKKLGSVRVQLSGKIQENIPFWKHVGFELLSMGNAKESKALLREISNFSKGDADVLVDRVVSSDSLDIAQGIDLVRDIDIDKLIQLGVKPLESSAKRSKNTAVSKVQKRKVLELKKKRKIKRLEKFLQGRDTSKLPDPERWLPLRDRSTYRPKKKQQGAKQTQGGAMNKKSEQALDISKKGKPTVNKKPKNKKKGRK

Measured: binding

ribosomal protein Rpl3 (from UniProt P14126 1-387)
binds: all assays above
